# Assay results: the supplement of paper PMC8728848
# This is one part of the list.
# Assays:
# Experiment in all cases: glycan array binding signal (z-score within array); higher = stronger binding
# Conditions in all cases: glycan notation: IUPAC condensed, linker removed
# [1] = target: GlcNAc(b1-3)Gal(b1-4)GlcNAc(b1-3)Gal(b1-4)GlcNAc(b1-3)GalNAc
# Method in brief: (§1)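 The binding signal is a Z-score computed within each array. Data were drawn from 3228 arrays in the Consortium for Functional Glycomics database, restricted to those with a known protein sequence. Scores were averaged over arrays of the same protein sequence at different concentrations or buffers, and over linkers, and negative values can be taken as non-binding.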
# [2] = target: GlcNAc(b1-3)Gal(b1-4)GlcNAc(b1-3)GalNAc
# Method in brief: as §1
# [3] = target: GlcNAc(b1-3)Gal(b1-4)GlcNAc(b1-3)[GlcNAc(b1-3)Gal(b1-4)GlcNAc(b1-3)]GalNAc
# Method in brief: as §1
# [4] = target: GlcNAc(b1-3)Gal(b1-4)GlcNAc(b1-6)[Gal(b1-3)]GalNAc
# Method in brief: as §1
# [5] = target: GlcNAc(b1-3)Gal(b1-4)GlcNAc(b1-6)[GlcNAc(b1-3)Gal(b1-3)]GalNAc
# Method in brief: as §1
# [6] = target: GlcNAc(b1-3)Gal(b1-4)GlcNAc(b1-6)[GlcNAc(b1-3)]Gal(b1-4)GlcNAc
# Method in brief: as §1
# GlcNAc(b1-3)GalNAc = target: GlcNAc(b1-3)GalNAc
# Method in brief: as §1
# GlcNAc(b1-3)Man = target: GlcNAc(b1-3)Man
# Method in brief: as §1
# [7] = target: GlcNAc(b1-3)[GlcNAc(b1-4)][GlcNAc(b1-6)]GlcNAc
# Method in brief: as §1
# [8] = target: GlcNAc(b1-3)[GlcNAc(b1-6)]Gal(b1-4)GlcNAc
# Method in brief: as §1
# [9] = target: GlcNAc(b1-3)[GlcNAc(b1-6)]GalNAc
# Method in brief: as §1
# [10] = target: GlcNAc(b1-4)Gal(b1-4)GlcNAc
# Method in brief: as §1
# GlcNAc(b1-4)GlcNAc = target: GlcNAc(b1-4)GlcNAc
# Method in brief: as §1
# [11] = target: GlcNAc(b1-4)GlcNAc(b1-4)GlcNAc
# Method in brief: as §1
# [12] = target: GlcNAc(b1-4)GlcNAc(b1-4)GlcNAc(b1-4)GlcNAc(b1-4)GlcNAc
# Method in brief: as §1
# [13] = target: GlcNAc(b1-4)GlcNAc(b1-4)GlcNAc(b1-4)GlcNAc(b1-4)GlcNAc(b1-4)GlcNAc
# Method in brief: as §1
# [14] = target: GlcNAc(b1-4)[GlcNAc(b1-6)]GalNAc
# Method in brief: as §1
# [15] = target: GlcNAc(b1-6)Gal(b1-4)GlcNAc
# Method in brief: as §1
# GlcNAc(b1-6)GalNAc = target: GlcNAc(b1-6)GalNAc
# Method in brief: as §1
# [16] = target: GlcNAc6S(b1-3)Gal(b1-4)GlcNAc
# Method in brief: as §1
# Kdn(a2-3)Gal(b1-3)GalNAc = target: Kdn(a2-3)Gal(b1-3)GalNAc
# Method in brief: as §1
# Kdn(a2-3)Gal(b1-3)GlcNAc = target: Kdn(a2-3)Gal(b1-3)GlcNAc
# Method in brief: as §1
# Kdn(a2-3)Gal(b1-4)Glc = target: Kdn(a2-3)Gal(b1-4)Glc
# Method in brief: as §1
# Kdn(a2-3)Gal(b1-4)GlcNAc = target: Kdn(a2-3)Gal(b1-4)GlcNAc
# Method in brief: as §1
# [17] = target: Kdn(a2-3)Gal(b1-4)[Fuc(a1-3)]GlcNAc
# Method in brief: as §1
# Kdn(a2-6)Gal(b1-4)GlcNAc = target: Kdn(a2-6)Gal(b1-4)GlcNAc
# Method in brief: as §1
# [18] = target: Man(a1-2)Man(a1-2)Man(a1-3)Man
# Method in brief: as §1
# [19] = target: Man(a1-2)Man(a1-2)Man(a1-6)[Man(a1-3)]Man
# Method in brief: as §1
# Man(a1-2)Man(a1-3)Man = target: Man(a1-2)Man(a1-3)Man
# Method in brief: as §1
# [20] = target: Man(a1-2)Man(a1-3)[Man(a1-2)Man(a1-6)]Man
# Method in brief: as §1
# [21] = target: Man(a1-2)Man(a1-3)[Man(a1-2)Man(a1-6)]Man(a1-6)[Man(a1-2)Man(a1-2)Man(a1-3)]Man
# Method in brief: as §1
# [22] = target: Man(a1-2)Man(a1-3)[Man(a1-2)Man(a1-6)]Man(a1-6)[Man(a1-2)Man(a1-2)Man(a1-3)]Man(b1-4)GlcNAc(b1-4)GlcNAc
# Method in brief: as §1
# [23] = target: Man(a1-2)Man(a1-3)[Man(a1-6)]Man(a1-6)[Man(a1-2)Man(a1-3)]Man(b1-4)GlcNAc(b1-4)GlcNAc
# Method in brief: as §1
# [24] = target: Man(a1-2)Man(a1-6)[Man(a1-3)]Man(a1-6)[Man(a1-2)Man(a1-2)Man(a1-3)]Man
# Method in brief: as §1
# [25] = target: Man(a1-2)Man(a1-6)[Man(a1-3)]Man(a1-6)[Man(a1-2)Man(a1-2)Man(a1-3)]Man(b1-4)GlcNAc(b1-4)GlcNAc
# Method in brief: as §1
# Man(a1-3)[Man(a1-6)]Man = target: Man(a1-3)[Man(a1-6)]Man
# Method in brief: as §1
# [26] = target: Man(a1-3)[Man(a1-6)]Man(a1-6)[Man(a1-2)Man(a1-3)]Man(b1-4)GlcNAc(b1-4)GlcNAc
# Method in brief: as §1
# [27] = target: Man(a1-3)[Man(a1-6)]Man(a1-6)[Man(a1-3)]Man
# Method in brief: as §1
# [28] = target: Man(a1-3)[Man(a1-6)]Man(a1-6)[Man(a1-3)]Man(b1-4)GlcNAc(b1-4)GlcNAc
# Method in brief: as §1
# [29] = target: Man(a1-3)[Man(a1-6)]Man(b1-4)GlcNAc(b1-4)GlcNAc
# Method in brief: as §1
# [30] = target: Man(a1-3)[Man(a1-6)]Man(b1-4)GlcNAc(b1-4)[Fuc(a1-6)]GlcNAc
# Method in brief: as §1
# Man(a1-6)Man = target: Man(a1-6)Man
# Method in brief: as §1
# Man(b1-4)GlcNAc = target: Man(b1-4)GlcNAc
# Method in brief: as §1
# MurNAc(b1-4)GlcNAc = target: MurNAc(b1-4)GlcNAc
# Method in brief: as §1
# Neu5Ac(a2-3)Gal = target: Neu5Ac(a2-3)Gal
# Method in brief: as §1
binder,measurement,setting,value
"Tp0751, 83732 (protein) MSYYHHHHHHLESTSLYKKAGFQHGHVPPRRIPPHDTFGALPTAALPSNARDTAAHPSDTADNTSGSSTTTDPRSHGNAPPAPVGGAAQTHTQPPVQTAMRIALWNRATHGEQGALQHLLAGLWIQTEISPNSGDIHPLLFFDREHAEITFSRASVQEIFLVDSAHTHRKTVSFLTRNTAISSIRRRLEVTFESHEVIHVRAVEDVARLKIGSTSMWDGQYTRYHAGPASAPSP",glycan array binding signal (z-score),[1],-0.412
same,glycan array binding signal (z-score),[2],-0.301
same,glycan array binding signal (z-score),[3],-0.214
same,glycan array binding signal (z-score),[4],-0.81
same,glycan array binding signal (z-score),[5],-0.836
same,glycan array binding signal (z-score),[6],-0.244
same,glycan array binding signal (z-score),GlcNAc(b1-3)GalNAc,-0.155
same,glycan array binding signal (z-score),GlcNAc(b1-3)Man,-0.538
same,glycan array binding signal (z-score),[7],-0.255
same,glycan array binding signal (z-score),[8],-0.107
same,glycan array binding signal (z-score),[9],-0.312
same,glycan array binding signal (z-score),[10],-0.444
same,glycan array binding signal (z-score),GlcNAc(b1-4)GlcNAc,-0.622
same,glycan array binding signal (z-score),[11],-0.804
same,glycan array binding signal (z-score),[12],0.344
same,glycan array binding signal (z-score),[13],-0.38
same,glycan array binding signal (z-score),[14],-0.573
same,glycan array binding signal (z-score),[15],0.465
same,glycan array binding signal (z-score),GlcNAc(b1-6)GalNAc,-0.08
same,glycan array binding signal (z-score),[16],-0.304
same,glycan array binding signal (z-score),Kdn(a2-3)Gal(b1-3)GalNAc,0.307
same,glycan array binding signal (z-score),Kdn(a2-3)Gal(b1-3)GlcNAc,-0.516
same,glycan array binding signal (z-score),Kdn(a2-3)Gal(b1-4)Glc,-0.135
same,glycan array binding signal (z-score),Kdn(a2-3)Gal(b1-4)GlcNAc,0.055
same,glycan array binding signal (z-score),[17],-0.3
same,glycan array binding signal (z-score),Kdn(a2-6)Gal(b1-4)GlcNAc,0.23
same,glycan array binding signal (z-score),[18],-0.278
same,glycan array binding signal (z-score),[19],-0.397
same,glycan array binding signal (z-score),Man(a1-2)Man(a1-3)Man,-0.335
same,glycan array binding signal (z-score),[20],-0.257
same,glycan array binding signal (z-score),[21],-0.436
same,glycan array binding signal (z-score),[22],-0.176
same,glycan array binding signal (z-score),[23],-0.389
same,glycan array binding signal (z-score),[24],-0.637
same,glycan array binding signal (z-score),[25],0.116
same,glycan array binding signal (z-score),Man(a1-3)[Man(a1-6)]Man,-0.744
same,glycan array binding signal (z-score),[26],0.61
same,glycan array binding signal (z-score),[27],-0.699
same,glycan array binding signal (z-score),[28],-0.236
same,glycan array binding signal (z-score),[29],-0.399
same,glycan array binding signal (z-score),[30],-0.469
same,glycan array binding signal (z-score),Man(a1-6)Man,-0.392
same,glycan array binding signal (z-score),Man(b1-4)GlcNAc,-0.599
same,glycan array binding signal (z-score),MurNAc(b1-4)GlcNAc,-0.603
same,glycan array binding signal (z-score),Neu5Ac(a2-3)Gal,-0.276
